Reference: the supplement of paper PMC11060735
± gives the standard deviation of the averaged measurements. The full ranking holds about 1,800 compounds; the median of “GFP- (p16Ink4a-) cell count relative to negative-control wells” is about 0.99, and the lowest 2% start at about 0.5. Some of the results follow.

system: mouse p16Ink4a+/- lung fibroblasts (INKBRITE, bleomycin-injured); test: GFP- (p16Ink4a-) cell count relative to negative-control wells (fold of vehicle); higher = more p16Ink4a- cells surviving; conditions: 1 µM; 3 days

Row | Structure (SMILES) | GFP-
1 | NC(=O)C1CCCc2c1[nH]c1ccc(Cl)cc21 (configuration not stated) [Selisistat] | 0.942 ± 0.17
2 | Cc1[nH]c(/C=C2\C(=O)Nc3ccc(S(=O)(=O)Cc4c(Cl)cccc4Cl)cc32)c(C)c1C(=O)N1CCC[C@@H]1CN1CCCC1 | 0.404
3 | COc1cc2ncnc(Sc3nnc(C)s3)c2cc1OC | 0.908
4 | NCCc1c[nH]cn1 [Histamine] | 1.02
5 | CCN(CC)Cc1ccc2cc(COC(=O)Nc3ccc(C(=O)NO)cc3)ccc2c1 [Givinostat] | 0.572 ± 0.012
6 | COc1cc(C(C)=O)ccc1OCCCN1CCC(c2noc3cc(F)ccc23)CC1 [Iloperidone] | 0.929
7 | CN1CCC(=C2c3ccccc3CCc3sccc32)CC1 [Pizotyline Malate] | 0.902
8 | OC(Cn1cncn1)(Cn1cncn1)c1ccc(F)cc1F [Fluconazole] | 1.22
9 | CCN(CC)CCNC(=O)c1c(C)[nH]c(/C=C2\C(=O)Nc3ccc(F)cc32)c1C [Sunitinib] | 0.755
10 | O=C(c1ccc(OCCN2CCCCC2)cc1)c1c(-c2ccc(O)cc2)sc2cc(O)ccc12 [Raloxifene] | 0.809
11 | CO/C(O)=C1/C(C)=NC(C)=C(C(=O)OC(C)C)C1c1cccc2nonc12 (configuration not stated) [Isradipine] | 1.06
12 | COc1ccc(F)c(F)c1C(=O)c1cnc(NC2CCN(S(C)(=O)=O)CC2)nc1N | 0.777
13 | Cc1c(C(=O)Nc2ccc(N3CCC(N4CCOCC4)CC3)c(C#N)c2)cnn1-c1ccc(Cl)cc1 | 0.605
14 | CN(C)c1ccc(C(=C2C=CC(=[N+](C)C)C=C2)c2ccc(N(C)C)cc2)cc1 [Gentian Violet] | 0.494
15 | N[C@@H](CC(=O)N1CCn2c(nnc2C(F)(F)F)C1)Cc1cc(F)c(F)cc1F [Sitagliptin] | 1.16
16 | OCCN(CCO)c1nc(N2CCCCC2)c2nc(N(CCO)CCO)nc(N3CCCCC3)c2n1 [Dipyridamole] | 0.942
17 | CC(=O)SCC(Cc1ccccc1)C(=O)NCC(=O)OCc1ccccc1 (configuration not stated) [Racecadotril] | 0.972
18 | O=C(c1ccc(OCCCc2c[nH]cn2)cc1)C1CC1 [Ciproxifan] | 1.01
19 | CC1(C)O[C@H]2CC(=O)OC[C@]23[C@H]2CC[C@@]4(C)[C@H](c5ccoc5)OC(=O)[C@H]5O[C@]54[C@]2(C)C(=O)C[C@@H]13 [Limonin] | 0.967
20 | C[C@@H]1C[C@H]2[C@@H]3C[C@H](F)C4=CC(=O)C=C[C@]4(C)[C@@]3(F)[C@@H](O)C[C@]2(C)[C@@]1(O)C(=O)CO [Flumethasone] | 1.01
21 | CC(C)C(=O)Nc1ccc([N+](=O)[O-])c(C(F)(F)F)c1 [Flutamide] | 1.16
22 | Cc1ccc(C(=O)N(CCCN)[C@@H](c2oc3cc(Cl)ccc3c(=O)c2Cc2ccccc2)C(C)C)cc1 | 0.595

Rewritten comma-delimited: 2 of the compounds above
Row,Structure (SMILES),GFP-
7,CN1CCC(=C2c3ccccc3CCc3sccc32)CC1 [Pizotyline Malate],0.902
8,OC(Cn1cncn1)(Cn1cncn1)c1ccc(F)cc1F [Fluconazole],1.22
